No constants are given. Whether binding was seen depends on the method and setting. In cells and extracts the contact can be indirect. Some entries that bind do so weakly or less than the wild type. Where a sequence is shown, tags or fusion partners need not be part of it.
Biological target: T1, GST-mFOG1 (aa 1-45) (mouse) (UniProt O35615)
T1 sequence: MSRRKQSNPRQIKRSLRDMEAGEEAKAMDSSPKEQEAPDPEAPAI
Assay: pull-down; GST-mFOG1(1-45) on Glutathione Sepharose with S2 cell nuclear extract, without or with competing peptides; Western blot; the pair that is blocked; only the target purified

By UniProt entry, the sequences of proteins in these tests, tags left out.
UniProt Q24572: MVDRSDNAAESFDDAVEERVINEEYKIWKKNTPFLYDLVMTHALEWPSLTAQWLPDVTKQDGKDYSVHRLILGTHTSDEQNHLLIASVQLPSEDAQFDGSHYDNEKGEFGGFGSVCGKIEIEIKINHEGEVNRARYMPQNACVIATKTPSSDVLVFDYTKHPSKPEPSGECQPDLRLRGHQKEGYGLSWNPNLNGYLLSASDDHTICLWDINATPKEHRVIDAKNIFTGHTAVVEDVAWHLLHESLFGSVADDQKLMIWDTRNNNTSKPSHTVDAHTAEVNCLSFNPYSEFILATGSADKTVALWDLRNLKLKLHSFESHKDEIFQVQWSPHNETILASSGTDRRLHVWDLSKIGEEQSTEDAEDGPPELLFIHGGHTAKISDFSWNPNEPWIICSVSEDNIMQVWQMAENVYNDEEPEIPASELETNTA

binding: binds
Substance: dp55 (from UniProt Q24572 1-430)
